In patent publication US6558922B1, “Methods and compositions for production of floral scent compounds” (Purdue Research Foundation, priority 1999, dated 2003):
Some of these results come from one statement about several compounds together. At least one compound was matched to its structure with a doubt left.

Tested on: BAMT
Assay: Effectors: BAMT enzyme assay with cations in assay buffer
Type: biochemical, Antirrhinum majus
Settings: cation at 5 mM in assay buffer

| Structure (SMILES) | Inhibition of BAMT activity | Effect on BAMT activity (only slightly) [%] |
| --- | --- | --- |
| [Cu+2] [Cu^2+] | 75-100% | – |
| [Ca+2] [Ca^2+] | – | < 10 |
